Measured values: article PMC5461494
These are yes or no findings as the source states them, for the method shown. Binding seen in cells or lysates may run through a third protein. Some entries that bind do so weakly or less than the wild type.

Sequences of proteins named here, by UniProt entry; tags and fusion partners are left off.
UniProt Q14676: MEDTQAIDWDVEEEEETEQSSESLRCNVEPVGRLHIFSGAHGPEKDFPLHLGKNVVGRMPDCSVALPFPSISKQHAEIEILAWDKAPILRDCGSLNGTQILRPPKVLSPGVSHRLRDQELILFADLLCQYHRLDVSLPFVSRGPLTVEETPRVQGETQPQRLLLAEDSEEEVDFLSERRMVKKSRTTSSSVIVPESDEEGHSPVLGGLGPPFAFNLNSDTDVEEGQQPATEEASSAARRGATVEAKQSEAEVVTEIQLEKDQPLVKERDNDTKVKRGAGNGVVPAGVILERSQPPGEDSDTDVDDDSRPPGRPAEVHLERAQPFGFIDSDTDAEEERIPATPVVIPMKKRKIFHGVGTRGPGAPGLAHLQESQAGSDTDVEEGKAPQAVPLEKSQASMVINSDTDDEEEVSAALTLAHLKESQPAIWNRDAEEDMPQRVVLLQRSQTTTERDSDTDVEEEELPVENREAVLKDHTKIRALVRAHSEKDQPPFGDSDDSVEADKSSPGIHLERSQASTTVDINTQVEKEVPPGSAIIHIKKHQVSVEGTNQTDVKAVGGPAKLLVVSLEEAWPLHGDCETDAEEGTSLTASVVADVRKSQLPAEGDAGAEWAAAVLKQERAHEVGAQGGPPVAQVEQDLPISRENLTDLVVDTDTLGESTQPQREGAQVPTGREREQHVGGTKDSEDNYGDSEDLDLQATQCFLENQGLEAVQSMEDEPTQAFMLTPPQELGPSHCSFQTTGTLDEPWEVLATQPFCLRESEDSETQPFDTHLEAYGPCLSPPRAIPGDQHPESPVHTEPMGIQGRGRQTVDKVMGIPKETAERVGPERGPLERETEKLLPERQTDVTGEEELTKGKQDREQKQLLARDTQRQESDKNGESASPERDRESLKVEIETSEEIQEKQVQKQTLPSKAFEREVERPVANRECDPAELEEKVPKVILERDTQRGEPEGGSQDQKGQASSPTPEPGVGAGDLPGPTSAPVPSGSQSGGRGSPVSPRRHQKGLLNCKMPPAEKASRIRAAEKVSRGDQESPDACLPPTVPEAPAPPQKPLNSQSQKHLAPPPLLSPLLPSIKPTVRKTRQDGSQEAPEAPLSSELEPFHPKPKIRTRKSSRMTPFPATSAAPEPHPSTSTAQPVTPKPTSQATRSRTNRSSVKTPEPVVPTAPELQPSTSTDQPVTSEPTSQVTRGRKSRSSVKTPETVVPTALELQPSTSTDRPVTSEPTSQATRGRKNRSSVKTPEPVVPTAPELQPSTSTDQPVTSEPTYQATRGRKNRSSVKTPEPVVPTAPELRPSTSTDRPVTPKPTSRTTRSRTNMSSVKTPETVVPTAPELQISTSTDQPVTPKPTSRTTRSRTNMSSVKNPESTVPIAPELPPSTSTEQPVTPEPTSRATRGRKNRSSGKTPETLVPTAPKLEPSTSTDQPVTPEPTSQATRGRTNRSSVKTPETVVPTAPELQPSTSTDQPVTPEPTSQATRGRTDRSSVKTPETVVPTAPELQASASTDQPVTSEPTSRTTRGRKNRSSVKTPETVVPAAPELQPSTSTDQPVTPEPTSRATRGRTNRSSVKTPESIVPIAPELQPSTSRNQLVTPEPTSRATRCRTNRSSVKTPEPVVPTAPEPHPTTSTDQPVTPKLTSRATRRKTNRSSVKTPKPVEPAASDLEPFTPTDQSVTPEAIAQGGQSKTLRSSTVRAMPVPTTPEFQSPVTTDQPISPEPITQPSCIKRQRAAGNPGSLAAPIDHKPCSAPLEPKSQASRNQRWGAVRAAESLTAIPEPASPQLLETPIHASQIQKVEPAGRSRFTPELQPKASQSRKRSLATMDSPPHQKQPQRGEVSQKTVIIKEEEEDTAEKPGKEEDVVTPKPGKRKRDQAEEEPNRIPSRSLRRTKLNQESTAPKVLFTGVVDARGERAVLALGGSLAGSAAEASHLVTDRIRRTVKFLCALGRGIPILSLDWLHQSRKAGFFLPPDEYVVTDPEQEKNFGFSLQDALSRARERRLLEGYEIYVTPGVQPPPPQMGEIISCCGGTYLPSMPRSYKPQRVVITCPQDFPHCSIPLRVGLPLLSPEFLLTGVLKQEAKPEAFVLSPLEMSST

What was measured:
[1] = target: T1, Receptor-associated protein 80 (RAP80) (human (endogenous in EFO-27)) (UniProt Q96RL1); assay: co-IP; endogenous proteins, EFO-27 cell lysates (control or USP13 knockout), RAP80 or USP13 antibody or control IgG, NETN buffer, 4 h at 4 °C
T1 sequence: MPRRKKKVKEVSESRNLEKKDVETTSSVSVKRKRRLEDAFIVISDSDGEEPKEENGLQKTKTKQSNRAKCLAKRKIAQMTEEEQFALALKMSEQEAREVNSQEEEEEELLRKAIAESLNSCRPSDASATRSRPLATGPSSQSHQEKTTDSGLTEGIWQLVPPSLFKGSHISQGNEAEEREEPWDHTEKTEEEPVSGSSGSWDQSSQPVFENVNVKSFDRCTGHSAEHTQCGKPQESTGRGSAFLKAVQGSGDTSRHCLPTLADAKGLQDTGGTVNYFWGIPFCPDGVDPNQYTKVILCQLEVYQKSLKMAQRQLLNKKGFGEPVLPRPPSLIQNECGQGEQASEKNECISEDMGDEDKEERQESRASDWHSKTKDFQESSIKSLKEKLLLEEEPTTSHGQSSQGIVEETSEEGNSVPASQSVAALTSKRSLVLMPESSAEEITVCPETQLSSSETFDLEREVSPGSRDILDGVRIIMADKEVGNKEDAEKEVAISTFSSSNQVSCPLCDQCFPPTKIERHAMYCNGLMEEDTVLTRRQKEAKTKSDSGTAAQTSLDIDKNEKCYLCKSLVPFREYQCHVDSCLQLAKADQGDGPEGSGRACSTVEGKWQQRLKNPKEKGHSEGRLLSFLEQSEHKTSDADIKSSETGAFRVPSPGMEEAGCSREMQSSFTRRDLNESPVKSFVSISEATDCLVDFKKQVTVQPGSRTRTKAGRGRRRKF

[2] = target: T2, USP13 (human (endogenous in EFO-27)) (UniProt Q92995); assay: as above
T2 sequence: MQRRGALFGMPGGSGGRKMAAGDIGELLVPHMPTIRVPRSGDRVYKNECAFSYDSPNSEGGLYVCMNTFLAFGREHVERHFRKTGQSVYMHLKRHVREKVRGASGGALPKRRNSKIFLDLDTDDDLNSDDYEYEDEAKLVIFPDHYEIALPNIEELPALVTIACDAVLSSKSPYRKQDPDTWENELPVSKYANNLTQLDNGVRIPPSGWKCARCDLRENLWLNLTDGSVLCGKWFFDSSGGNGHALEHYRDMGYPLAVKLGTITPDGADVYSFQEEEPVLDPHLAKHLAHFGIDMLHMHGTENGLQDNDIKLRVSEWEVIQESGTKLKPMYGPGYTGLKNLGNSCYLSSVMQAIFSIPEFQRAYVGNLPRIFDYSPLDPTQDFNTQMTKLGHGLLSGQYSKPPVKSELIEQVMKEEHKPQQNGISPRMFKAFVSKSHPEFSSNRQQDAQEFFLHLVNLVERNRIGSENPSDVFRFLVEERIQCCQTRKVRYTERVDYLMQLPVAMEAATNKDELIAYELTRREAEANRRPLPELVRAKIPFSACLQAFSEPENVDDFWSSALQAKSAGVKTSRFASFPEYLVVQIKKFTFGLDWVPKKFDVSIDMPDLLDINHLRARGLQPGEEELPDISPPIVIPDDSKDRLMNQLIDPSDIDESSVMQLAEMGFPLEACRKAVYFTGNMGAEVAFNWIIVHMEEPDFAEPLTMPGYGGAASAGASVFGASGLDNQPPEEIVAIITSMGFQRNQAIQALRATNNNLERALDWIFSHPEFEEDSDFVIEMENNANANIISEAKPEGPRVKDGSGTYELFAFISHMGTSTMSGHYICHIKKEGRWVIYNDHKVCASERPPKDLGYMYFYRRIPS

HA-MDC1 = HA-MDC1 (UniProt Q14676); assay: co-IP; HEK293T cells transfected with HA-MDC1 or its deletion mutants, untreated or treated with cisplatin; immunoprecipitation with HA antibody

B1: USP13 (enzyme, UniProt Q92995 1-863)
chain: MQRRGALFGMPGGSGGRKMAAGDIGELLVPHMPTIRVPRSGDRVYKNECAFSYDSPNSEGGLYVCMNTFLAFGREHVERHFRKTGQSVYMHLKRHVREKVRGASGGALPKRRNSKIFLDLDTDDDLNSDDYEYEDEAKLVIFPDHYEIALPNIEELPALVTIACDAVLSSKSPYRKQDPDTWENELPVSKYANNLTQLDNGVRIPPSGWKCARCDLRENLWLNLTDGSVLCGKWFFDSSGGNGHALEHYRDMGYPLAVKLGTITPDGADVYSFQEEEPVLDPHLAKHLAHFGIDMLHMHGTENGLQDNDIKLRVSEWEVIQESGTKLKPMYGPGYTGLKNLGNSCYLSSVMQAIFSIPEFQRAYVGNLPRIFDYSPLDPTQDFNTQMTKLGHGLLSGQYSKPPVKSELIEQVMKEEHKPQQNGISPRMFKAFVSKSHPEFSSNRQQDAQEFFLHLVNLVERNRIGSENPSDVFRFLVEERIQCCQTRKVRYTERVDYLMQLPVAMEAATNKDELIAYELTRREAEANRRPLPELVRAKIPFSACLQAFSEPENVDDFWSSALQAKSAGVKTSRFASFPEYLVVQIKKFTFGLDWVPKKFDVSIDMPDLLDINHLRARGLQPGEEELPDISPPIVIPDDSKDRLMNQLIDPSDIDESSVMQLAEMGFPLEACRKAVYFTGNMGAEVAFNWIIVHMEEPDFAEPLTMPGYGGAASAGASVFGASGLDNQPPEEIVAIITSMGFQRNQAIQALRATNNNLERALDWIFSHPEFEEDSDFVIEMENNANANIISEAKPEGPRVKDGSGTYELFAFISHMGTSTMSGHYICHIKKEGRWVIYNDHKVCASERPPKDLGYMYFYRRIPS
binding [1]: binds

B2: Receptor-associated protein 80 (RAP80) (protein, UniProt Q96RL1 1-719)
chain: MPRRKKKVKEVSESRNLEKKDVETTSSVSVKRKRRLEDAFIVISDSDGEEPKEENGLQKTKTKQSNRAKCLAKRKIAQMTEEEQFALALKMSEQEAREVNSQEEEEEELLRKAIAESLNSCRPSDASATRSRPLATGPSSQSHQEKTTDSGLTEGIWQLVPPSLFKGSHISQGNEAEEREEPWDHTEKTEEEPVSGSSGSWDQSSQPVFENVNVKSFDRCTGHSAEHTQCGKPQESTGRGSAFLKAVQGSGDTSRHCLPTLADAKGLQDTGGTVNYFWGIPFCPDGVDPNQYTKVILCQLEVYQKSLKMAQRQLLNKKGFGEPVLPRPPSLIQNECGQGEQASEKNECISEDMGDEDKEERQESRASDWHSKTKDFQESSIKSLKEKLLLEEEPTTSHGQSSQGIVEETSEEGNSVPASQSVAALTSKRSLVLMPESSAEEITVCPETQLSSSETFDLEREVSPGSRDILDGVRIIMADKEVGNKEDAEKEVAISTFSSSNQVSCPLCDQCFPPTKIERHAMYCNGLMEEDTVLTRRQKEAKTKSDSGTAAQTSLDIDKNEKCYLCKSLVPFREYQCHVDSCLQLAKADQGDGPEGSGRACSTVEGKWQQRLKNPKEKGHSEGRLLSFLEQSEHKTSDADIKSSETGAFRVPSPGMEEAGCSREMQSSFTRRDLNESPVKSFVSISEATDCLVDFKKQVTVQPGSRTRTKAGRGRRRKF
binding [2]: binds

B3: USP13 (in HEK293T lysate) (enzyme, UniProt Q92995 1-863)
chain: MQRRGALFGMPGGSGGRKMAAGDIGELLVPHMPTIRVPRSGDRVYKNECAFSYDSPNSEGGLYVCMNTFLAFGREHVERHFRKTGQSVYMHLKRHVREKVRGASGGALPKRRNSKIFLDLDTDDDLNSDDYEYEDEAKLVIFPDHYEIALPNIEELPALVTIACDAVLSSKSPYRKQDPDTWENELPVSKYANNLTQLDNGVRIPPSGWKCARCDLRENLWLNLTDGSVLCGKWFFDSSGGNGHALEHYRDMGYPLAVKLGTITPDGADVYSFQEEEPVLDPHLAKHLAHFGIDMLHMHGTENGLQDNDIKLRVSEWEVIQESGTKLKPMYGPGYTGLKNLGNSCYLSSVMQAIFSIPEFQRAYVGNLPRIFDYSPLDPTQDFNTQMTKLGHGLLSGQYSKPPVKSELIEQVMKEEHKPQQNGISPRMFKAFVSKSHPEFSSNRQQDAQEFFLHLVNLVERNRIGSENPSDVFRFLVEERIQCCQTRKVRYTERVDYLMQLPVAMEAATNKDELIAYELTRREAEANRRPLPELVRAKIPFSACLQAFSEPENVDDFWSSALQAKSAGVKTSRFASFPEYLVVQIKKFTFGLDWVPKKFDVSIDMPDLLDINHLRARGLQPGEEELPDISPPIVIPDDSKDRLMNQLIDPSDIDESSVMQLAEMGFPLEACRKAVYFTGNMGAEVAFNWIIVHMEEPDFAEPLTMPGYGGAASAGASVFGASGLDNQPPEEIVAIITSMGFQRNQAIQALRATNNNLERALDWIFSHPEFEEDSDFVIEMENNANANIISEAKPEGPRVKDGSGTYELFAFISHMGTSTMSGHYICHIKKEGRWVIYNDHKVCASERPPKDLGYMYFYRRIPS
binding (HA-MDC1): binds
